Results are given in words; binding and its absence hold for the method and conditions named. Binding seen in cells or lysates may run through a third protein. Here binding means that the protein was enriched with, or labelled near, the bait; the list need not be complete. Each block holds one molecule with its values, some of them ahead of it.
Molecular target: MAF bZIP transcription factor F (MAFF) (human (endogenous in Caco-2)) (UniProt Q9ULX9)
Assay: affinity purification with mass spectrometry; MAFF protein complex captured by a MAFF antibody, analysed by SDS-PAGE and mass spectrometry; two repeated experiments

The chains behind the UniProt entries cited, without tags or fusion partners. Where a name states a change or a piece, a line headed by the entry shows the natural chain unless it says otherwise. Residues count along the entry.
UniProt Q9ULX9: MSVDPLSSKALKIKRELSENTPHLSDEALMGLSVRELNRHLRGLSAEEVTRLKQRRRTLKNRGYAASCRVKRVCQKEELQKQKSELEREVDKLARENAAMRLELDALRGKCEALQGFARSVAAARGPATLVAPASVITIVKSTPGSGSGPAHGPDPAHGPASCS
UniProt Q08554: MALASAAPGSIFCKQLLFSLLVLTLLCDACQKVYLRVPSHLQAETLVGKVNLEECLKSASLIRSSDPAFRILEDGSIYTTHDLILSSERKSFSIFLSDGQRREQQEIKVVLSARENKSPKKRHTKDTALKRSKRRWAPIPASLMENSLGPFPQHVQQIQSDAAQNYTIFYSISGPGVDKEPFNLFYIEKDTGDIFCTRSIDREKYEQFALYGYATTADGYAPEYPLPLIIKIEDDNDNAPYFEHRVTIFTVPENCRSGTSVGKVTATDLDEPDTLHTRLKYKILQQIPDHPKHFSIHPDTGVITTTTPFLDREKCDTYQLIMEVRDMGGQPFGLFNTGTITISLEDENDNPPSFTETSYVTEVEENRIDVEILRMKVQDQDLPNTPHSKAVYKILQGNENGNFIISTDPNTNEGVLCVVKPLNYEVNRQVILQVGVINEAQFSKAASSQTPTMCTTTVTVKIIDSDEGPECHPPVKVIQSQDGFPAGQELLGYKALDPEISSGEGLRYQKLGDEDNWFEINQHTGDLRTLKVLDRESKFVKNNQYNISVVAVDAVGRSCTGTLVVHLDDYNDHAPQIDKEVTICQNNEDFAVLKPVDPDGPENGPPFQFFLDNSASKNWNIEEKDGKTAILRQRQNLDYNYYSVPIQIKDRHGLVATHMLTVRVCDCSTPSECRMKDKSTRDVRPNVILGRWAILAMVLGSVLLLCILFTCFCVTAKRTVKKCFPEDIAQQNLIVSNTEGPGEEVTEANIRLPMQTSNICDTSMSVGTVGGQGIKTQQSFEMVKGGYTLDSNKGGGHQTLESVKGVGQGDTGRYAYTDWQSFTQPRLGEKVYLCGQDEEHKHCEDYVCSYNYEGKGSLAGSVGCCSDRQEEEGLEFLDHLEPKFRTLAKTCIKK
UniProt Q02413, residues 50-1049: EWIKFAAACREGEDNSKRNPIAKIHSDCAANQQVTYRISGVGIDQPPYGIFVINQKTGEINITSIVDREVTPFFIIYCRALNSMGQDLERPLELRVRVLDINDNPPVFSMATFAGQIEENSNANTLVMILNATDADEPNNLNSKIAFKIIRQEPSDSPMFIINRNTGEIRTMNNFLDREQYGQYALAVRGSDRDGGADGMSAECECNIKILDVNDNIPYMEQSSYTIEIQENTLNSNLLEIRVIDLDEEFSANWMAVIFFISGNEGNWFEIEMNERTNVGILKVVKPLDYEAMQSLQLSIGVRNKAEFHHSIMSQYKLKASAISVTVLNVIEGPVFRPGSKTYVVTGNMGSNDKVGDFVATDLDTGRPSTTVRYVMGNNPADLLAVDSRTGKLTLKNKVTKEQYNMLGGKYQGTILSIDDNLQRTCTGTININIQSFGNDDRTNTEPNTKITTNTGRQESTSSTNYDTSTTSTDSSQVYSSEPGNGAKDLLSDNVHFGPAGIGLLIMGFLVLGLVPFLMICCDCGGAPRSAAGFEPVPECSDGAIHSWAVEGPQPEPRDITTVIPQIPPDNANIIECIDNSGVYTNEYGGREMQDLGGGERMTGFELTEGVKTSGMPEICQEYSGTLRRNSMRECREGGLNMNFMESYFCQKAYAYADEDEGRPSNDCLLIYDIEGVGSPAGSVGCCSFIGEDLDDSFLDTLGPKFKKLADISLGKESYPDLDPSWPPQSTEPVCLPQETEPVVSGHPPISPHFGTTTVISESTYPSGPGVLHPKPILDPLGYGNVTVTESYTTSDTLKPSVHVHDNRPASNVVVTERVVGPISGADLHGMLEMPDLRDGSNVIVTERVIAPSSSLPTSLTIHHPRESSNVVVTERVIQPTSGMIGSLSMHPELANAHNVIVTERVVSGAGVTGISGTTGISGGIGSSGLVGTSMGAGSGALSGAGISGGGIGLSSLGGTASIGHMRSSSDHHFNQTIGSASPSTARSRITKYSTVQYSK
UniProt P06733, residues 94-434: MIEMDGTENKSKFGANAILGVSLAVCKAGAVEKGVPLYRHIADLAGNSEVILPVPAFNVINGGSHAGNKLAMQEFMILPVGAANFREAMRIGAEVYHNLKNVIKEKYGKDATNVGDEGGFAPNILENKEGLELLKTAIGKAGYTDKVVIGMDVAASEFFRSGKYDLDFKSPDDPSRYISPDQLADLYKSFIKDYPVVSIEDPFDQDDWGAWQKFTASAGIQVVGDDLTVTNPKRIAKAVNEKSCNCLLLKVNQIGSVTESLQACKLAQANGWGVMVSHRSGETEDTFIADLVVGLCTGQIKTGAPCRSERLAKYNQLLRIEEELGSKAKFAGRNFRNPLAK
UniProt P15924: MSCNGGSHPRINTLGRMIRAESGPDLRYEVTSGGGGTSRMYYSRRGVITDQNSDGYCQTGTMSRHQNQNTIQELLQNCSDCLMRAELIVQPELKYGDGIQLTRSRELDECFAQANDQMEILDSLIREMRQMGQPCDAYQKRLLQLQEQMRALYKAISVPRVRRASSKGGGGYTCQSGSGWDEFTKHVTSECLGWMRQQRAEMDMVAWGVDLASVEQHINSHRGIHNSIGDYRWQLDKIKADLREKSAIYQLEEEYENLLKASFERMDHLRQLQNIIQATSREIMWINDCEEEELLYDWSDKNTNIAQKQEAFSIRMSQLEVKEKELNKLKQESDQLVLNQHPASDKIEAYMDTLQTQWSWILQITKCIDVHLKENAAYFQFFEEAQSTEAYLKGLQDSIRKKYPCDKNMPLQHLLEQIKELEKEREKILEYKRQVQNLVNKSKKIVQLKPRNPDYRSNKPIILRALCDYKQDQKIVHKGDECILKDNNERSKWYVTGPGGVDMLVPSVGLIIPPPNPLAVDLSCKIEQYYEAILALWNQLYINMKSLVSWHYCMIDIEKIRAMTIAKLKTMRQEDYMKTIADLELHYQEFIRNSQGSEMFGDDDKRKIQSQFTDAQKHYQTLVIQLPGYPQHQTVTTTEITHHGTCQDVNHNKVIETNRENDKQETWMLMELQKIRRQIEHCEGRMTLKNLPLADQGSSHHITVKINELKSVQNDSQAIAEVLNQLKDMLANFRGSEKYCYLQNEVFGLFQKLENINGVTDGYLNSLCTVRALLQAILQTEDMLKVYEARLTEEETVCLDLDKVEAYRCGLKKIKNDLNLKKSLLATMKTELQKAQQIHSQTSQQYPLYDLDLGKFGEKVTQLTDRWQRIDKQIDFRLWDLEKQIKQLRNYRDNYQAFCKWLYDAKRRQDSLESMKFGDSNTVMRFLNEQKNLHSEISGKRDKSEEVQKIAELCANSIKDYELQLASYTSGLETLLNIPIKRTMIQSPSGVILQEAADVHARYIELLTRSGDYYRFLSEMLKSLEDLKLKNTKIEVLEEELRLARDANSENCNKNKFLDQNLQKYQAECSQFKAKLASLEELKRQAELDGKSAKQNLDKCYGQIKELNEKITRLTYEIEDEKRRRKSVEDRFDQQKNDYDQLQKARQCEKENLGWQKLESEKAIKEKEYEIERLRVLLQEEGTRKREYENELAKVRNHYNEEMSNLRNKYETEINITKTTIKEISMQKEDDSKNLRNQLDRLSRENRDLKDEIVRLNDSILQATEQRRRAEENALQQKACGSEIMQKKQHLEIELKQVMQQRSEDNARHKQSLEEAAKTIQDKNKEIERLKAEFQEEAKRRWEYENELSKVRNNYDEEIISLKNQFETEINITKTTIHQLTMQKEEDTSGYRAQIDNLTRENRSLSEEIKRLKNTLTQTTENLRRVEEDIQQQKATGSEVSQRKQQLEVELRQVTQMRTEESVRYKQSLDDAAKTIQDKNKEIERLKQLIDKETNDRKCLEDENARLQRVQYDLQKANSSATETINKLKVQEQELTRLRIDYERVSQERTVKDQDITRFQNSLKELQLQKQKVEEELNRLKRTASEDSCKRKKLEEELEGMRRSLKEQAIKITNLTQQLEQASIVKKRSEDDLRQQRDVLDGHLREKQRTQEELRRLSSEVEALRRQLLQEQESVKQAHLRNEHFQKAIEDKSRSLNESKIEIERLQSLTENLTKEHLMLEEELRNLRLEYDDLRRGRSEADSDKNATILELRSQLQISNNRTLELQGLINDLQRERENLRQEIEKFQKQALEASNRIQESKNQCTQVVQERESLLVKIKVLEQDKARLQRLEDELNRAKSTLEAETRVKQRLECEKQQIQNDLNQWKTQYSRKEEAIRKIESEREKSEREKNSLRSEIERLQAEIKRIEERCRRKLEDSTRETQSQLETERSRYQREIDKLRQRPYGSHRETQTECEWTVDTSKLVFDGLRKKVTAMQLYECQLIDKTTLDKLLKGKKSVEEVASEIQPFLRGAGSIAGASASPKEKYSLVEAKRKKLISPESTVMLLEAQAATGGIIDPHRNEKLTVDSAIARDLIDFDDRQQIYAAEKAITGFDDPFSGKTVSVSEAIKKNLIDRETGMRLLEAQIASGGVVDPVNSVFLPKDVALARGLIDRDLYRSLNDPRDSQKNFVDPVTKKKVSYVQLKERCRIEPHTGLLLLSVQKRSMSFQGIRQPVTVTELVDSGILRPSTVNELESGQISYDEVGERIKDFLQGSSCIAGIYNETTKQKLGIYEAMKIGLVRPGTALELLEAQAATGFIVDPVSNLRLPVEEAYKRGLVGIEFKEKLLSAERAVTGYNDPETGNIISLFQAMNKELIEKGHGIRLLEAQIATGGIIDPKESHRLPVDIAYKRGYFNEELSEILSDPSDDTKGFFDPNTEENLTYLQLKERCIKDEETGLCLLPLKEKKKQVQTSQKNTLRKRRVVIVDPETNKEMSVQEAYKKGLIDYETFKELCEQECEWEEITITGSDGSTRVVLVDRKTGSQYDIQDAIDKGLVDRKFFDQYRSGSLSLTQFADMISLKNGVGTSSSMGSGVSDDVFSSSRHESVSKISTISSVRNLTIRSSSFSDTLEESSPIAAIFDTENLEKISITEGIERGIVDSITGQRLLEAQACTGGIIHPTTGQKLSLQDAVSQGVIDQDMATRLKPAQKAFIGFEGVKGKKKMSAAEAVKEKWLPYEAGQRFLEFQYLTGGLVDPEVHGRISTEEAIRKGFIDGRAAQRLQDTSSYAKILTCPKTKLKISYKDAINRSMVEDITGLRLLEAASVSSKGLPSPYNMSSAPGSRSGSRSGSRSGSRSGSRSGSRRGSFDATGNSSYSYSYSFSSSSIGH

Molecule: Desmocollin 1 (from UniProt Q08554)
binding: binds

Molecule: Desmoglein-1 (from UniProt Q02413 50-1049)
binding: binds

Molecule: c-myc promoter binding protein 1 (MBP1) (from UniProt P06733-2 1-341)
binding: binds

Now from value to molecule:

binding: binds
Molecule: Desmoplakin (from UniProt P15924 1-2871)

binding: binds
B1: Junction plakoglobin (protein, UniProt P14923 1-745)
chain: MEVMNLMEQPIKVTEWQQTYTYDSGIHSGANTCVPSVSSKGIMEEDEACGRQYTLKKTTTYTQGVPPSQGDLEYQMSTTARAKRVREAMCPGVSGEDSSLLLATQVEGQATNLQRLAEPSQLLKSAIVHLINYQDDAELATRALPELTKLLNDEDPVVVTKAAMIVNQLSKKEASRRALMGSPQLVAAVVRTMQNTSDLDTARCTTSILHNLSHHREGLLAIFKSGGIPALVRMLSSPVESVLFYAITTLHNLLLYQEGAKMAVRLADGLQKMVPLLNKNNPKFLAITTDCLQLLAYGNQESKLIILANGGPQALVQIMRNYSYEKLLWTTSRVLKVLSVCPSNKPAIVEAGGMQALGKHLTSNSPRLVQNCLWTLRNLSDVATKQEGLESVLKILVNQLSVDDVNVLTCATGTLSNLTCNNSKNKTLVTQNSGVEALIHAILRAGDKDDITEPAVCALRHLTSRHPEAEMAQNSVRLNYGIPAIVKLLNQPNQWPLVKATIGLIRNLALCPANHAPLQEAAVIPRLVQLLVKAHQDAQRHVAAGTQQPYTDGVRMEEIVEGCTGALHILARDPMNRMEIFRLNTIPLFVQLLYSSVENIQRVAAGVLCELAQDKEAADAIDAEGASAPLMELLHSRNEGTATYAAAVLFRISEDKNPDYRKRVSVELTNSLFKHDPAAWEAAQSMIPINEPYGDDMDATYRPMYSSDVPLDPLEMHMDMDGDYPIDTYSDGLRPPYPTADHMLA

binding: binds
B2: Dermcidin (protein, UniProt P81605 20-110)
chain: YDPEAASAPGSGNPCHEASAAQKENAGEDPGLARQAPKPRKQRSSLLEKGLDGAKKAVGGLGKLGKDAVEDLESVGKGAVHDVKDVLDSVL
